In patent EP1228058B1, “BENZOPYRANYL GUANIDINE DERIVATIVES, PROCESS FOR PREPARATION THEREOF, AND PHARMACEUTICAL COMPOSITIONS CONTAINING THEM” (Dongbu Hannong Chemical Co., Ltd., priority 1999, dated 2001):

Assays:
[1] = tested on: ischemic heart models of rats; test: Heart protective (anti-ischemic) activity in ischemic heart models of anesthetized rats; type: in vivo; details: 45 min occlusion, 90 min reperfusion
Method: Male rats (350-450 g, obtained from the Experimental Animal Team of the Korea Research Institute of Chemical Technology) were anesthetized by the intraperitoneal injection of pentobarbital at a dose of 75 mg/kg. After trachetomy, the rats were rendered to respire artificially at a rate of 60/min with a stroke volume of 10 ml/kg. Cannulars were inserted into the fermoral vein and the fermoral artery and used for drug administration and blood pressure measurement, respectively.
In the ischemic myocardium damage models, the body temperature has an important influence on the results. To avoid the change in the body temperature, a body temperature measuring probe was inserted into the rectum of each rat and the body temperature was constantly kept at 37 °C with the aid of a homeothermic blanket control unit.
Afterwards, during testing, a continuous measurement was made of the mean arterial blood pressures and heart rates from the rats. For the measurement of the blood pressure, a pressure transducer, such as that manufactured by Grass Ins., MA, U.S.A., identified as Model Statham P23XL, was used. The heart rate was measured by a tachometer, such as that manufactured by Gould Inc., OH, U.S.A., identified as Biotachometer. In addition, all of the changes occurring were continuously recorded through the Gould 2000 chart recorder, manufactured by Gould Inc.
The left coronary artery was occluded according to the Selye H. method as follows. The rats underwent a left thoracotomy operation for partial opening of the chest and the right-side chest was pressurized by the middle finger of the left hand to push the heart out. Immediately after the left anterior descending coronary artery hereinafter referred to as (LAD) was carefully stitched using a suture needle with 5-0 silk ligature, the heart was then repositioned in the thoracic cavity while both ends of the ligature were situated outside. The opposite ligature ends were passed through a PE tube (PE100, 2.5 cm) and allowed to stand loose for 20 min for stabilization. Via the cannula inserted into the femoral vein, vehicles or drugs were administered into the rats which were rendered to stand for 30 min in order to sufficiently elicit the efficacies of the drugs. BMS-180448 was used as a control drug and the i.v.administration dose was 0.3 mg/kg for all test drugs of interest and the control drug.
Next, the PE tube which had the doubled strands of the ligature passed therethrough was pushed toward the heart and then, set upright by tightly pulling end regions of the ligature with a hemostatic pincette while pressing the coronary artery. The PE tube was allowed to stand for 45 min for the occlusion of the coronary artery, followed by the removal of the hemostatic pincette and then, by the reperfusion for 90 min.
After the reocclusion of the coronary artery in accordance with the above procedure, the rats were administered with 2 ml of a 1% Evans blue through an intravenous route. Subsequently, an excess of pentobarbital was intravenously injected to kill the rats, after which the heart was removed and then, deprived of the right ventricle and both atria. The left ventricle was cut horizontally to the heart apex into 5 or 6 slices which were weighed. From the surface of each slice, images were input with the aid of a Hi-scope into a computer installed with an image analyzing program (Image Pro Plus). From the images input into the computer, the area of the normal blood stream tissue region which appeared blue in a computer monitor and the area which appeared colorless were measured. The percentage of the colorless area to the total area of each slice was calculated and multiplied by the weight of each slice to determine the area at risk (AAR) of each slice. […]

[2] = tested on: ischemic heart models of beagle dogs; test: Heart protective (anti-ischemic) activity in ischemic heart models of anesthetized beagle dogs; type: in vivo; details: total dose 2 mg/kg infused i.v. over 40 min, 90 min occlusion, 5 h reperfusion
Method: In order to determine whether the compounds of the formula 1 are protective for the ischemic hearts of larger animals, experiments determining the anti-ischemic effects of the compounds on beagle dogs were conducted as follows. The experiments on beagle dogs followed the method of Grover et al.' (G. J. Grover et al., J. Cardiovasc. Pharmacol. 25, 40 (1995)).
After being anesthetized by an intravenous injection of pentobarbital at a dose of 35 mg/kg, male beagle dogs (8-12 kg) were further infused with pentobarbital sodium at a dose of 3-4 mg/kg through the right cephalic vein throughout the experiments, so as to keep the anesthesia constant. […] The heart rate was measured by a tachometer, such as that manufactured by Gould Inc., OH, U.S.A., identified as Biotachometer. In addition, all of the changes occurring during the experiment were continuously recorded through the Gould 2000 chart recorder, manufactured by Gould Inc.
The fifth intercostal space was incised to open the thorax and the LAD was separated from its surrounding tissues. […] The LAD part upstream of the silk ligature was isolated from adjacent tissues and the blood flow was measured quantitatively. […] Using polygraph such as Grass Model 7E, the electrocardiogram was measured and read (Lead II). […]

Structure (SMILES) | Anti-ischemic Activity (in vivo, rats) (0.3 mg/kg i.v.) AAR/LV (%) [1] [%] | Anti-ischemic Activity (in vivo, dogs) (2 mg/kg/40 i.v.) min,i.v.) AAR/LV (%) [2] [%]
COC(OC)[C@@]1(C)Oc2ccc(NC(C)=O)cc2[C@@H](NC(=NC#N)NCc2ccccc2)[C@@H]1O [Example 41] | 33.59 | –
CC1(C)Oc2ccc(C#N)cc2[C@@H](NC(=NC#N)Nc2ccc(Cl)cc2)[C@@H]1O [BMS-180448, reference compound] | 38.83 | 37.73
COC(OC)[C@@]1(C)Oc2ccc([N+](=O)[O-])cc2[C@@H](NC(=NC#N)NCc2ccccc2)[C@@H]1O [Example 25, (2S, 3S, 4R)-N''-cyano-N-(6-nitro-3,4-dihydro-3-hydroxy-2-methyl-2-dimethoxymethyl-2H-benzopyran-4-yl)-N'-benzylguanidine] | 36.88 | –
COC(OC)[C@@]1(C)Oc2ccc([N+](=O)[O-])cc2[C@H](NC(=NC#N)NCc2ccccc2)[C@H]1O [Example 24, (2S, 3R, 4S)-N''-cyano-N-(6-nitro-3,4-dihydro-3-hydroxy-2-methyl-2-dimethoxymethyl-2H-benzopyran-4-yl)-N'-benzylguanidine] | 37.92 | 35.33
COC(OC)[C@@]1(C)Oc2ccc([N+](=O)[O-])cc2[C@H](NC(=NC#N)Nc2ccccc2Cl)[C@H]1O [Example 32, (2S, 3R, 4S)-N''-cyano-N-(6-nitro-3,4-dihydro-3-hydroxy-2-methyl-2-dimethoxymethyl-2H-benzopyran-4-yl)-N'-(2-chlorophenyl)guanidine] | 42.49 | –
COC(OC)[C@@]1(C)Oc2ccc([N+](=O)[O-])cc2[C@@H](NC(=NC#N)NCc2ccccc2)[C@@H]1OC(C)=O [Example 38, (2S, 3S, 4R)-N''-cyano-N-(6-nitro-3,4-dihydro-3-acetoxy-2-methyl-2-dimethoxymethyl-2H-benzopyran-4-yl)-N'-benzylguanidine] | 38.26 | –
